From patent US20230192896A1
Results are given in words; binding and its absence hold for the method and conditions named. Some entries that bind do so weakly or less than the wild type.

The chains behind the UniProt entries cited, without tags or fusion partners. Where a name states a change or a piece, a line headed by the entry shows the natural chain unless it says otherwise. Residues count along the entry.
UniProt P00740: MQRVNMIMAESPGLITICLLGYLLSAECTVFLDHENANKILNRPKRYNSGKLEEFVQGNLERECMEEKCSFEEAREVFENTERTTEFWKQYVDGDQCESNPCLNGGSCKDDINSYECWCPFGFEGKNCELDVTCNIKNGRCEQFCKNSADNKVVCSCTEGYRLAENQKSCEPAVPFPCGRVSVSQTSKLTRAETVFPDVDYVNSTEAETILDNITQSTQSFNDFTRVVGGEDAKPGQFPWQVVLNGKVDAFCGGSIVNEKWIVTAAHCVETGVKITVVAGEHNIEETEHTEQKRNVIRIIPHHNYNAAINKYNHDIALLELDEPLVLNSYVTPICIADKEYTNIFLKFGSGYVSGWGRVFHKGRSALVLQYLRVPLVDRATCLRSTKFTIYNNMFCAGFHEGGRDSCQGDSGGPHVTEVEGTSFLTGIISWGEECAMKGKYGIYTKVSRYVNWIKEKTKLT
UniProt P01008, residues 33-464: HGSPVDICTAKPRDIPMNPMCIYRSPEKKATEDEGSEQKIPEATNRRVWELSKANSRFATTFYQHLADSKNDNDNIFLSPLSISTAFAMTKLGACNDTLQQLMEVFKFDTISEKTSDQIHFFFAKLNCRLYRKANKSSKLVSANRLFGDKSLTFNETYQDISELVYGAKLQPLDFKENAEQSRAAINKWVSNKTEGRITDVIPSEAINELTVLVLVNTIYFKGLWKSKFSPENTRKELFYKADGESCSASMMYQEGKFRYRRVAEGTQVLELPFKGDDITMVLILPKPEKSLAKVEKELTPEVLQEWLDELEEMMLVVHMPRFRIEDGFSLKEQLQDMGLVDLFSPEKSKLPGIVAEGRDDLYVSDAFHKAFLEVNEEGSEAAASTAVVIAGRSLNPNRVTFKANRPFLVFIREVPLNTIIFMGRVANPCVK

Molecular target: free FIXa (activated Factor IX) (human) (UniProt P00740)
Assay: non-reducing SDS gel of 500 nM FIXa with 5000 nM ATIII

binding: binds
Substance: Anti-thrombin III (ATIII) (from UniProt P01008 33-464)
